Laboratory results: PubChem BioAssay AID1259308 (NCATS, 2017)
The deposit covers about 59,000 reagents; this is a random part of them. About 1,510 of all reagents (2.6%) count as active. 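Calls use total luciferase alone and ignore viability, so some active siRNAs may act by altering cell number.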 Entries without a mark were called inactive. The numbers tell different reagents against one gene apart. Further read-outs or replicates are left out here.

- Test: 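Candidate targets for better recombinant protein yield in mammalian cells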 (primary screen)
- System: human HEK293 embryonic kidney cells stably expressing firefly luciferase (HEK-CMV-Luc2-Hygro)
- Reagents: single siRNA against human genes, 0.8 pmol siRNA per well
- Time to read-out: 72 h
- Measurement: 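Luciferase light (ONE-Glo) measured on one replicate plate set and viability (CellTiter-Glo) on the other, scaled to a negative control siRNA, with robust z-scores and luciferase per cell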
- Scale: total luciferase, z-score and total luciferase, % of control: higher = more reporter protein produced
- Rule for the call: 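An siRNA counts as active if its total luciferase robust z-score exceeds 3; genes with two or more such siRNAs out of three were retested with fresh siRNAs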
- Calls: active = raised luciferase; inactive = no rise

With knock-down of CD101 #1, the screen gave total luciferase, z-score -1.04; total luciferase, % of control 61.1.
CD101 #2 gave total luciferase, z-score 0.798; total luciferase, % of control 97.8.
Against CD101 #3, the entry reads total luciferase, z-score -0.384; total luciferase, % of control 74.3.
With knock-down of MAB21L3 #1 the results were total luciferase, z-score -1.09; total luciferase, % of control 60.2.
With knock-down of MAB21L3 #2 the results were total luciferase, z-score 0.519; total luciferase, % of control 92.2.
MAB21L3 #3 showed total luciferase, z-score 0.217; total luciferase, % of control 86.2.
Silencing of REC8 #1 gave: total luciferase, z-score -0.0178; total luciferase, % of control 81.5.
REC8 #2 showed total luciferase, z-score 1.16; total luciferase, % of control 105.
For REC8 #3, the entry reads total luciferase, z-score -0.326; total luciferase, % of control 75.4.
For ASTN2 #1, the values are total luciferase, z-score -0.563; total luciferase, % of control 70.7.
ASTN2 #2 showed total luciferase, z-score -0.0247; total luciferase, % of control 81.4.
ASTN2 #3 gave total luciferase, z-score -0.548; total luciferase, % of control 71.
Depletion of CLPB #1 resulted in: total luciferase, z-score 0.973; total luciferase, % of control 101.
After knock-down of CLPB #2 the results were total luciferase, z-score 0.394; total luciferase, % of control 89.7.
CLPB #3 gave total luciferase, z-score -0.385; total luciferase, % of control 74.2.
Silencing of DNAJC17 #1 came out at: total luciferase, z-score -0.00191; total luciferase, % of control 81.8.
With knock-down of DNAJC17 #2, the screen gave total luciferase, z-score 0.291; total luciferase, % of control 87.7.
With knock-down of DNAJC17 #3, the record shows total luciferase, z-score -0.639; total luciferase, % of control 69.2.
For GET1 #1, the values are total luciferase, z-score -0.284; total luciferase, % of control 76.2.
With knock-down of GET1 #2, the record shows total luciferase, z-score -1.7; total luciferase, % of control 48.1.
For GET1 #3 the deposit lists total luciferase, z-score 0.552; total luciferase, % of control 92.9.

No new results follow: entries from further up.
ASTN2 #3 → total luciferase, z-score: -0.548; total luciferase, % of control: 71
CLPB #1 → total luciferase, z-score: 0.973; total luciferase, % of control: 101
